Some of these results come from one statement about several compounds together. At least one compound was matched to its structure with a doubt left.
Tests used:
[1] = molecular target: NR1/NR2A (Rattus norvegicus, UniProt P35439+Q00959); assay: Inhibition of NMDA receptor NR1/NR2A activity in Xenopus laevis oocytes, two-electrode voltage clamp method; settings: at a concentration of 30 μM
[2] = molecular target: T1, ASIC1a (Homo sapiens, UniProt P78348); assay: Inhibition of ASIC1a current in ASIC1a-expressing Xenopus laevis oocytes, two-electrode voltage clamp method; format: cell-based; settings: at a concentration of 30 μM
T1 construct: expressed in transfected cells; host or cells: Xenopus laevis oocytes injected with capped cRNA
T1 sequence (P78348 1-528): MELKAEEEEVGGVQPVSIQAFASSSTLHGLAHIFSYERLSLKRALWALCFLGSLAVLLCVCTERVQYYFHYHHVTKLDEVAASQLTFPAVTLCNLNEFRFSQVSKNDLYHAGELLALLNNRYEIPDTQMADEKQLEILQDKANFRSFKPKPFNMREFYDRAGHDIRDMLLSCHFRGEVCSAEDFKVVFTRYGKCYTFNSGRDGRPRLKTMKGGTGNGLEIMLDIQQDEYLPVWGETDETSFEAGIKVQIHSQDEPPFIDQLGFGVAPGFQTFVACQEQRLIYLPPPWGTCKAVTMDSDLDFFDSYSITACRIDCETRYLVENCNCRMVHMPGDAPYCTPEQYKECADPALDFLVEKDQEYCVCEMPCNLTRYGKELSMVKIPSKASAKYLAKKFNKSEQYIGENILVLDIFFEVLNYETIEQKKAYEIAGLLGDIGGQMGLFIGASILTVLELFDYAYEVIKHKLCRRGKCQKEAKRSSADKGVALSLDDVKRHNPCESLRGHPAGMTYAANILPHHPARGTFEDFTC
Procedure: (1) Preparation of the ASIC1a-expressing Xenopus laevis oocytes
Using the RNeasy Protect Mini Kit (QIAGEN), total RNA was prepared from HEK293 cells. Subsequently, using the High Fidelity RNA PCR kit (TAKARA BIO INC.), first strand cDNA was synthesized, and using this first strand cDNA as a template, PCR was performed. The sense-strand primer for PCR was: […] (SEQ ID NO: 1) and the antisense-strand primer for PCR was: […] (SEQ ID NO: 2), and the PCR conditions were such that one cycle consisting of 95° C. for 30 seconds, 55° C. for 30 seconds, and 72° C. for 90 seconds was repeated 30 cycles. The PCR product was inserted into the PCR2.1 vector, and the resulting vector was further subcloned into the pcDNA3.1 (−) vector. From the ASIC1a plasmid which was linearized by the BamHI enzyme, capped cRNA was synthesized using the mMessage mMachine Kits (Ambion).

By UniProt entry, the sequences of proteins in these tests, tags left out. Residues count along the entry.
UniProt Q00959, 23-1464: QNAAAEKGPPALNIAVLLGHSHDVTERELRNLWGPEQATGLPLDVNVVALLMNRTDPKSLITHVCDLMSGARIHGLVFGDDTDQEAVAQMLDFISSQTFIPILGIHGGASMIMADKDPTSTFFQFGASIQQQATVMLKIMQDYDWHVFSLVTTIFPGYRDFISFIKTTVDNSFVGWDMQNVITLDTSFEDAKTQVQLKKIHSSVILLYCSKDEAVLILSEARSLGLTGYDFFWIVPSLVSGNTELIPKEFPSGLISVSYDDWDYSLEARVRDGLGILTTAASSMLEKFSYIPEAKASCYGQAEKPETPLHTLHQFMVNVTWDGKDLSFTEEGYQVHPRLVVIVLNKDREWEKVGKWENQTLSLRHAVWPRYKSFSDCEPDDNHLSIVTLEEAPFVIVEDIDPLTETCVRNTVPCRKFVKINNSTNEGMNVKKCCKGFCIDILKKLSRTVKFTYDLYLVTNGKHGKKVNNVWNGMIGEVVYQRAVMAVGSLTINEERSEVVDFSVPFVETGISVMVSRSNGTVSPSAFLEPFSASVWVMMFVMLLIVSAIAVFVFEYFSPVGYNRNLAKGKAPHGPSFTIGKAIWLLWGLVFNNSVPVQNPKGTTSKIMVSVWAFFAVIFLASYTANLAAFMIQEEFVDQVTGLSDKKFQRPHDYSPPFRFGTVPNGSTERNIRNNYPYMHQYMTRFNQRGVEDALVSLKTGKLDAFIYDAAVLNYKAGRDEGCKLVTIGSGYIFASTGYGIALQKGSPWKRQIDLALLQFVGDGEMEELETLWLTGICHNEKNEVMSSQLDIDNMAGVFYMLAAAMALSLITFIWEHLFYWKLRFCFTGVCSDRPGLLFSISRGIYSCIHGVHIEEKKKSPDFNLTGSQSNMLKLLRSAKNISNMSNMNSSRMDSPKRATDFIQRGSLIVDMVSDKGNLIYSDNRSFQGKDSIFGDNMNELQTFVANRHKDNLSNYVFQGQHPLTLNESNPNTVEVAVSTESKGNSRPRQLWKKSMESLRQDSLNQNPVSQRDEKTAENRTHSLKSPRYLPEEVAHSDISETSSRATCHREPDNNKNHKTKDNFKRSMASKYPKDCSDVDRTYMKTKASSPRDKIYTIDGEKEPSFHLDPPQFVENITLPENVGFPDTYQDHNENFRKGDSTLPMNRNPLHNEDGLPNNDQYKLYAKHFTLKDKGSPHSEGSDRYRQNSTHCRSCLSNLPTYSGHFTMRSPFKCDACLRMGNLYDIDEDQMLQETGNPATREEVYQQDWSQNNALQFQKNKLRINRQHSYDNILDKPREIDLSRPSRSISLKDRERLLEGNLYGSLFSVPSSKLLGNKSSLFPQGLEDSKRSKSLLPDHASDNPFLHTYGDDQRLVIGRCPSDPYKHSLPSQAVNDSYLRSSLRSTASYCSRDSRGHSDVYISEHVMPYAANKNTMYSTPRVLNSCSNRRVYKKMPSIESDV

Row | Compound | inhibitory activity on NR1/NR2A [1] | inhibitory activity on ASIC1a [2]
1 | 1-(3,5-diamino-6-chloropyrazinamide)-5-[2-(3-trifluoromethylphenyl)ethyl]biguanide [Example 5] | confirmed to have inhibitory activities | confirmed to have inhibitory activities
2 | 1-(3,5-diamino-6-chloropyrazinamide)-5-[3-(4-chlorophenyl)propyl]biguanide [Example 4] | confirmed to have inhibitory activities | confirmed to have inhibitory activities
3 | N=C(NCc1ccc(C(F)(F)F)cc1)NC(=N)NNC(=O)c1nc(Cl)c(N)nc1N [Example 24] | confirmed to have inhibitory activities | confirmed to have inhibitory activities
4 | N=C(NCc1ccc(F)c(F)c1)NC(=N)NNC(=O)c1nc(Cl)c(N)nc1N [Example 27] | confirmed to have inhibitory activities | confirmed to have inhibitory activities

Reference: patent publication US8895564B2, “Biguanide derivative compound” (Nihon University, priority 2010, dated 2014)
